Results taken from PMC12579213.
These are yes or no findings as the source states them, for the method shown. For some assays here: Binding calls can cover weak binding; strength is not graded here.

By UniProt entry, the sequences of proteins in these tests, tags left out. Where a name states a change or a piece, a line headed by the entry shows the natural chain unless it says otherwise. Residues count along the entry.
UniProt P60953: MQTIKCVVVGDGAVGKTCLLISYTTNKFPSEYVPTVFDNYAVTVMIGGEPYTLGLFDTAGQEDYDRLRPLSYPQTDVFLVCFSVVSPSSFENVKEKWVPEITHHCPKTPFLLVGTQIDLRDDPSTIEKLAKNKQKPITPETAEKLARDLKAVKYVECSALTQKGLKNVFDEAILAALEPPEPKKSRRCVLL
UniProt P61586: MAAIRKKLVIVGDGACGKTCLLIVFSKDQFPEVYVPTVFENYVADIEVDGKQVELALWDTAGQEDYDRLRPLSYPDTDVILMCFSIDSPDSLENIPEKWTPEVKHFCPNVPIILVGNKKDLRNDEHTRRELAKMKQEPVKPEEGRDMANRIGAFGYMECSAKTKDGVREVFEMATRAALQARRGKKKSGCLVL
UniProt P10301: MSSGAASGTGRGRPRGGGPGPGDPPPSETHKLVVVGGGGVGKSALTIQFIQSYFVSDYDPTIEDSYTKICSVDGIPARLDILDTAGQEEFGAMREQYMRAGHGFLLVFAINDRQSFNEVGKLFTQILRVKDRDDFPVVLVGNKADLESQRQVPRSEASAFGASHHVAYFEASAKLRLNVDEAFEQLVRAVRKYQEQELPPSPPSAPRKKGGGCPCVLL
UniProt O00401, residues 203-239: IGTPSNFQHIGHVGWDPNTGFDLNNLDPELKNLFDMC
UniProt Q13153, residues 69-108: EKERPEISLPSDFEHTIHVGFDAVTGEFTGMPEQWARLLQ
UniProt O75914, residues 65-89: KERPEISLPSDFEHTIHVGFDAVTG
UniProt P42768, residues 230-287: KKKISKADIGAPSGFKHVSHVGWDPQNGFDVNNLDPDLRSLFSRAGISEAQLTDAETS
UniProt Q13464, residues 934-1015: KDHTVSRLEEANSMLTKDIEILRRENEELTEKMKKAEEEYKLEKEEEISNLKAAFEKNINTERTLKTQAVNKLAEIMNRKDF
UniProt Q9Y4D1, residues 45-233: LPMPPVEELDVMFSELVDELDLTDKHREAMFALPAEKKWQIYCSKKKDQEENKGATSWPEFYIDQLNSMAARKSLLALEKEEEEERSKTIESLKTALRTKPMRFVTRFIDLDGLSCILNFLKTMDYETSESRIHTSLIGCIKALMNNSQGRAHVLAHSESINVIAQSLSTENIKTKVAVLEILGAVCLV
UniProt O60610, residues 63-260: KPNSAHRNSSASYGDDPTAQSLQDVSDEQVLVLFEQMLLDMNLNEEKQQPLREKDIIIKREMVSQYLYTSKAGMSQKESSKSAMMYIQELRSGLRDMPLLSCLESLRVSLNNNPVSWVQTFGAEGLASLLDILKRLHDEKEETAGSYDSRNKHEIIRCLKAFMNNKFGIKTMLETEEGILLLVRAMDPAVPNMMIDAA
UniProt Q96PY5, residues 23-276: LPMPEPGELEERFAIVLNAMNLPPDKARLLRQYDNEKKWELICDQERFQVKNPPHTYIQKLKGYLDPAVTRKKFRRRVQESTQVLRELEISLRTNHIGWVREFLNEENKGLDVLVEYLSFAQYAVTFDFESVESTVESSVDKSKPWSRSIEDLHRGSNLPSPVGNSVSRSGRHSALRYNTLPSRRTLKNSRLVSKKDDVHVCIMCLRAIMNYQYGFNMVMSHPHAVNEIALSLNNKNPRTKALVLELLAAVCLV
UniProt Q8IVF7, residues 27-278: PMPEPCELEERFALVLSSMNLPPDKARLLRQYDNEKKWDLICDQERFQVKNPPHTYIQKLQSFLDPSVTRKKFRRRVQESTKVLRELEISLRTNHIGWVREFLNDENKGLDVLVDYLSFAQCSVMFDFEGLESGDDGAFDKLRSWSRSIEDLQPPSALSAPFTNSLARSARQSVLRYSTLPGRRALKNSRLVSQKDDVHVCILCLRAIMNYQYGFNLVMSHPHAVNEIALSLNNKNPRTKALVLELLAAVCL

How the values were obtained:
[1] = target: DsRed-Cdc42h (Q61L, ΔCAAX) (UniProt P60953); assay: INSPECT (co-condensation of proteins fused to a tetrameric RFP and to ferritin, imaged in living cells); DsRed-small GTPase (bait) and effector-CFP-FT (prey) co-transfected; co-localized condensates counted; efficiency, SNR and protein interaction index (PI)
DsRed-RhoA (Q63L, ΔCAAX) = DsRed-RhoA (Q63L, ΔCAAX) (UniProt P61586); assay: as above
DsRed-RRas (Q87L, ΔCAAX) = DsRed-RRas (Q87L, ΔCAAX) (UniProt P10301); assay: INSPECT (co-condensation of proteins fused to a tetrameric RFP and to ferritin, imaged in living cells); ternary format: fluorescent-protein-fused intermediate (YFP-Sos) co-expressed with Prey-CFP-FT and DsRed-Bait

Question: How did the binding [1] turn out when “CRIBN_(WASP)-CFP-FT (from UniProt O00401 203-239) (domain or fragment)” was run?
Answer: Its binding is “binds”.

Question: “CRIB_(PAK1)-CFP-FT (from UniProt Q13153 69-108) (domain or fragment)” was tested. Which binding [1] did it give?
Answer: The binding was “binds”.

Question: How did the binding [1] turn out when “CRIB_(PAK3)-CFP-FT (from UniProt O75914 65-89) (domain or fragment)” was run?
Answer: Its binding is “binds”.

Question: With “CRIB_(WASP)-CFP-FT (from UniProt P42768 230-287) (domain or fragment)” as the substance, how does the binding [1] read?
Answer: Its binding is “binds”.

Question: With “GBD_(ROCK1)-CFP-FT (from UniProt Q13464 934-1015) (domain or fragment)” as the substance, how does the binding (DsRed-RhoA (Q63L, ΔCAAX)) read?
Answer: Its binding is “binds”.

Question: What about the binding [1] of the same substance?
Answer: The binding was “binds weakly”.

Question: “RBD_(DAAM1)-CFP-FT (from UniProt Q9Y4D1 45-233) (domain or fragment)” was tested. Which binding [1] did it give?
Answer: The binding was “binds”.

Question: Which binding [1] does the source give for “RBD_(DIAPH1)-CFP-FT (from UniProt O60610 63-260) (domain or fragment)” here?
Answer: Its binding is “binds”.

Question: For “RBD_(FMNL2)-CFP-FT (from UniProt Q96PY5 23-276) (domain or fragment)”, which binding [1] is on record?
Answer: Its binding is “binds”.

Question: With “RBD_(FMNL3)-CFP-FT (from UniProt Q8IVF7 27-278) (domain or fragment)” as the substance, how does the binding [1] read?
Answer: The binding was “binds”.

Question: With “YFP-Sos_(564-1050) (from UniProt Q07889 564-1050) (domain or fragment)” as the substance, how does the binding (DsRed-RRas (Q87L, ΔCAAX)) read?
Answer: Its binding is “no binding”.
